Source: US20080032897A1, “Methods of screening for inhibitors of autoinhibited proteins” (priority 2004, published 2008)

Tested on: mutationally activated Pak2
Details: FIG. 10, high luminescence = inhibition

CN[C@@H]1C[C@H]2O[C@@](C)([C@@H]1OC)n1c3ccccc3c3c4c(c5c6ccccc6n2c5c31)C(=O)NC4 [staurosporine]
inhibition of mutationally activated Pak2: also inhibits mutationally activated Pak2
